# Assay results reported in the supplement of paper PMC8728848.
# This is one part of the list.
# Legend:
# Assay in all cases: glycan array binding signal (z-score within array); higher = stronger binding
# Conditions in all cases: glycan notation: IUPAC condensed, linker removed
# [1] = target: Neu5Ac(a2-3)Gal(b1-4)GlcNAc(b1-3)Gal(b1-4)GlcNAc(b1-3)Gal(b1-4)GlcNAc(b1-2)Man(a1-3)[Neu5Ac(a2-3)Gal(b1-4)GlcNAc(b1-3)Gal(b1-4)GlcNAc(b1-3)Gal(b1-4)GlcNAc(b1-2)Man(a1-6)]GalNAc
# Method in brief: (§1)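 The binding signal is a Z-score computed within each array. Data were drawn from 3228 arrays in the Consortium for Functional Glycomics database, restricted to those with a known protein sequence. Scores were averaged over arrays of the same protein sequence at different concentrations or buffers, and over linkers, and negative values can be taken as non-binding.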
# [2] = target: Neu5Ac(a2-3)Gal(b1-4)GlcNAc(b1-3)Gal(b1-4)GlcNAc(b1-3)GalNAc
# Method in brief: as §1
# [3] = target: Neu5Ac(a2-3)Gal(b1-4)GlcNAc(b1-3)Gal(b1-4)GlcNAc(b1-3)[Neu5Ac(a2-3)Gal(b1-4)GlcNAc(b1-3)Gal(b1-4)GlcNAc(b1-6)]GalNAc
# Method in brief: as §1
# [4] = target: Neu5Ac(a2-3)Gal(b1-4)GlcNAc(b1-3)Gal(b1-4)GlcNAc(b1-6)[Gal(b1-3)]GalNAc
# Method in brief: as §1
# [5] = target: Neu5Ac(a2-3)Gal(b1-4)GlcNAc(b1-3)Gal(b1-4)[Fuc(a1-3)]GlcNAc
# Method in brief: as §1
# [6] = target: Neu5Ac(a2-3)Gal(b1-4)GlcNAc(b1-3)GalNAc
# Method in brief: as §1
# [7] = target: Neu5Ac(a2-3)Gal(b1-4)GlcNAc(b1-3)[Neu5Ac(a2-3)Gal(b1-4)GlcNAc(b1-6)]GalNAc
# Method in brief: as §1
# [8] = target: Neu5Ac(a2-3)Gal(b1-4)GlcNAc(b1-6)GalNAc
# Method in brief: as §1
# [9] = target: Neu5Ac(a2-3)Gal(b1-4)GlcNAc(b1-6)[Gal(b1-3)]GalNAc
# Method in brief: as §1
# [10] = target: Neu5Ac(a2-3)Gal(b1-4)GlcNAc(b1-6)[Neu5Ac(a2-3)Gal(b1-3)]GalNAc
# Method in brief: as §1
# [11] = target: Neu5Ac(a2-3)Gal(b1-4)GlcNAc6S
# Method in brief: as §1
# [12] = target: Neu5Ac(a2-3)Gal(b1-4)[Fuc(a1-3)]GlcNAc
# Method in brief: as §1
# [13] = target: Neu5Ac(a2-3)Gal(b1-4)[Fuc(a1-3)]GlcNAc(b1-2)Man
# Method in brief: as §1
# [14] = target: Neu5Ac(a2-3)Gal(b1-4)[Fuc(a1-3)]GlcNAc(b1-3)Gal
# Method in brief: as §1
# [15] = target: Neu5Ac(a2-3)Gal(b1-4)[Fuc(a1-3)]GlcNAc(b1-3)Gal(b1-4)GlcNAc
# Method in brief: as §1
# [16] = target: Neu5Ac(a2-3)Gal(b1-4)[Fuc(a1-3)]GlcNAc(b1-3)Gal(b1-4)[Fuc(a1-3)]GlcNAc(b1-3)Gal(b1-4)[Fuc(a1-3)]GlcNAc
# Method in brief: as §1
# [17] = target: Neu5Ac(a2-3)Gal(b1-4)[Fuc(a1-3)]GlcNAc(b1-3)GalNAc
# Method in brief: as §1
# [18] = target: Neu5Ac(a2-3)Gal(b1-4)[Fuc(a1-3)]GlcNAc(b1-6)[Gal(b1-3)]GalNAc
# Method in brief: as §1
# [19] = target: Neu5Ac(a2-3)Gal(b1-4)[Fuc(a1-3)]GlcNAc(b1-6)[Neu5Ac(a2-3)Gal(b1-3)]GalNAc
# Method in brief: as §1
# [20] = target: Neu5Ac(a2-3)Gal(b1-4)[Fuc(a1-3)]GlcNAc6S
# Method in brief: as §1
# [21] = target: Neu5Ac(a2-3)Gal6S(b1-4)GlcNAc
# Method in brief: as §1
# [22] = target: Neu5Ac(a2-3)Gal6S(b1-4)[Fuc(a1-3)]GlcNAc
# Method in brief: as §1
# Neu5Ac(a2-3)GalNAc = target: Neu5Ac(a2-3)GalNAc
# Method in brief: as §1
# [23] = target: Neu5Ac(a2-3)GalNAc(b1-4)GlcNAc
# Method in brief: as §1
# [24] = target: Neu5Ac(a2-3)[GalNAc(b1-4)]Gal(b1-4)Glc
# Method in brief: as §1
# [25] = target: Neu5Ac(a2-3)[GalNAc(b1-4)]Gal(b1-4)GlcNAc
# Method in brief: as §1
# [26] = target: Neu5Ac(a2-3)[GalNAc(b1-4)]Gal(b1-4)GlcNAc(b1-3)GalNAc
# Method in brief: as §1
# [27] = target: Neu5Ac(a2-3)[Neu5Ac(a2-6)]GalNAc
# Method in brief: as §1
# Neu5Ac(a2-6)Gal = target: Neu5Ac(a2-6)Gal
# Method in brief: as §1
# [28] = target: Neu5Ac(a2-6)Gal(b1-3)GlcNAc(b1-3)[Gal(b1-4)GlcNAc(b1-6)]Gal(b1-4)Glc
# Method in brief: as §1
# Neu5Ac(a2-6)Gal(b1-4)Glc = target: Neu5Ac(a2-6)Gal(b1-4)Glc
# Method in brief: as §1
# [29] = target: Neu5Ac(a2-6)Gal(b1-4)GlcNAc
# Method in brief: as §1
# [30] = target: Neu5Ac(a2-6)Gal(b1-4)GlcNAc(b1-2)Man
# Method in brief: as §1
# [31] = target: Neu5Ac(a2-6)Gal(b1-4)GlcNAc(b1-2)Man(a1-3)Man(b1-4)GlcNAc(b1-4)GlcNAc
# Method in brief: as §1
# [32] = target: Neu5Ac(a2-6)Gal(b1-4)GlcNAc(b1-2)Man(a1-3)[Gal(b1-4)GlcNAc(b1-2)Man(a1-6)]Man(b1-4)GlcNAc(b1-4)GlcNAc
# Method in brief: as §1
# [33] = target: Neu5Ac(a2-6)Gal(b1-4)GlcNAc(b1-2)Man(a1-3)[GlcNAc(b1-2)Man(a1-6)]Man(b1-4)GlcNAc(b1-4)GlcNAc
# Method in brief: as §1
# [34] = target: Neu5Ac(a2-6)Gal(b1-4)GlcNAc(b1-2)Man(a1-3)[GlcNAc(b1-2)Man(b1-4)GlcNAc(b1-2)Man(a1-6)]Man(b1-4)GlcNAc(b1-4)GlcNAc
# Method in brief: as §1
# [35] = target: Neu5Ac(a2-6)Gal(b1-4)GlcNAc(b1-2)Man(a1-3)[GlcNAc(b1-4)][Neu5Ac(a2-6)Gal(b1-4)GlcNAc(b1-2)Man(a1-6)]Man(b1-4)GlcNAc(b1-4)GlcNAc
# Method in brief: as §1
# [36] = target: Neu5Ac(a2-6)Gal(b1-4)GlcNAc(b1-2)Man(a1-3)[Man(a1-6)]Man(b1-4)GlcNAc(b1-4)GlcNAc
# Method in brief: as §1
# [37] = target: Neu5Ac(a2-6)Gal(b1-4)GlcNAc(b1-2)Man(a1-3)[Neu5Ac(a2-3)Gal(b1-4)GlcNAc(b1-2)Man(a1-6)]Man(b1-4)GlcNAc(b1-4)GlcNAc
# Method in brief: as §1
# [38] = target: Neu5Ac(a2-6)Gal(b1-4)GlcNAc(b1-2)Man(a1-3)[Neu5Ac(a2-6)Gal(b1-4)GlcNAc(b1-2)Man(a1-6)]Man(b1-4)GlcNAc(b1-4)GlcNAc
# Method in brief: as §1
# [39] = target: Neu5Ac(a2-6)Gal(b1-4)GlcNAc(b1-2)Man(a1-3)[Neu5Ac(a2-6)Gal(b1-4)GlcNAc(b1-2)Man(a1-6)]Man(b1-4)GlcNAc(b1-4)[Fuc(a1-6)]GlcNAc
# Method in brief: as §1
# [40] = target: Neu5Ac(a2-6)Gal(b1-4)GlcNAc(b1-2)Man(a1-6)Man(b1-4)GlcNAc(b1-4)GlcNAc
# Method in brief: as §1
# [41] = target: Neu5Ac(a2-6)Gal(b1-4)GlcNAc(b1-2)Man(a1-6)[Gal(b1-4)GlcNAc(b1-2)Man(a1-3)]Man(b1-4)GlcNAc(b1-4)GlcNAc
# Method in brief: as §1
# [42] = target: Neu5Ac(a2-6)Gal(b1-4)GlcNAc(b1-2)Man(a1-6)[GlcNAc(b1-2)Man(a1-3)]Man(b1-4)GlcNAc(b1-4)GlcNAc
# Method in brief: as §1
binder,measurement,setting,value
"BabA (Helicobacter pylori), O52269_HELPY (protein) AEDDGFYMSAGYQIGEAAQMVKNTKGIQELSDNYENLSNLLTRYSTLNTLIKLSADPSAVNAARENLGASAKNLIGDTKNSPAYQAVLLAINAAVGFWNVVGYVTQCGGNANGQKSTSSTTIFNNEPGYRSTSITCSLNGHMPGYYGPMSIENFKKLNEAYQILQTALKNGLPALKENNGTVNVTYSYTCSGEGNDNCSLQTTGVTNQNNGTKTETQTIDGKSVTTTISSKVVDSQ",glycan array binding signal (z-score),[1],9.34
same,glycan array binding signal (z-score),[2],-0.6
same,glycan array binding signal (z-score),[3],0.572
same,glycan array binding signal (z-score),[4],-0.482
same,glycan array binding signal (z-score),[5],-0.639
same,glycan array binding signal (z-score),[6],0.167
same,glycan array binding signal (z-score),[7],-0.219
same,glycan array binding signal (z-score),[8],-0.546
same,glycan array binding signal (z-score),[9],1.93
same,glycan array binding signal (z-score),[10],-0.584
same,glycan array binding signal (z-score),[11],0.617
same,glycan array binding signal (z-score),[12],-0.547
same,glycan array binding signal (z-score),[13],-0.682
same,glycan array binding signal (z-score),[14],-1.1
same,glycan array binding signal (z-score),[15],-0.124
same,glycan array binding signal (z-score),[16],-0.088
same,glycan array binding signal (z-score),[17],0.626
same,glycan array binding signal (z-score),[18],0.425
same,glycan array binding signal (z-score),[19],1.06
same,glycan array binding signal (z-score),[20],-0.377
same,glycan array binding signal (z-score),[21],0.903
same,glycan array binding signal (z-score),[22],-0.093
same,glycan array binding signal (z-score),Neu5Ac(a2-3)GalNAc,0.285
same,glycan array binding signal (z-score),[23],0.215
same,glycan array binding signal (z-score),[24],-0.398
same,glycan array binding signal (z-score),[25],-0.627
same,glycan array binding signal (z-score),[26],-0.255
same,glycan array binding signal (z-score),[27],0.421
same,glycan array binding signal (z-score),Neu5Ac(a2-6)Gal,0.065
same,glycan array binding signal (z-score),[28],-0.428
same,glycan array binding signal (z-score),Neu5Ac(a2-6)Gal(b1-4)Glc,-0.136
same,glycan array binding signal (z-score),[29],-0.468
same,glycan array binding signal (z-score),[30],-0.355
same,glycan array binding signal (z-score),[31],-0.226
same,glycan array binding signal (z-score),[32],0.295
same,glycan array binding signal (z-score),[33],0.136
same,glycan array binding signal (z-score),[34],-0.829
same,glycan array binding signal (z-score),[35],-0.637
same,glycan array binding signal (z-score),[36],-0.169
same,glycan array binding signal (z-score),[37],-0.6
same,glycan array binding signal (z-score),[38],-0.571
same,glycan array binding signal (z-score),[39],1.19
same,glycan array binding signal (z-score),[40],-0.055
same,glycan array binding signal (z-score),[41],-0.488
same,glycan array binding signal (z-score),[42],-0.4

# Given bar-delimited: part of the list above
binder | measurement | setting | value
BabA (Helicobacter pylori), O52269_HELPY (protein) AEDDGFYMSAGYQIGEAAQMVKNTKGIQELSDNYENLSNLLTRYSTLNTLIKLSADPSAVNAARENLGASAKNLIGDTKNSPAYQAVLLAINAAVGFWNVVGYVTQCGGNANGQKSTSSTTIFNNEPGYRSTSITCSLNGHMPGYYGPMSIENFKKLNEAYQILQTALKNGLPALKENNGTVNVTYSYTCSGEGNDNCSLQTTGVTNQNNGTKTETQTIDGKSVTTTISSKVVDSQ | glycan array binding signal (z-score) | [6] | 0.167
same | glycan array binding signal (z-score) | [7] | -0.219
same | glycan array binding signal (z-score) | [8] | -0.546
same | glycan array binding signal (z-score) | [11] | 0.617
same | glycan array binding signal (z-score) | Neu5Ac(a2-3)GalNAc | 0.285
same | glycan array binding signal (z-score) | [31] | -0.226
same | glycan array binding signal (z-score) | [33] | 0.136
same | glycan array binding signal (z-score) | [40] | -0.055
